One molecule from patent publication US20070141625A1 (published 2007) can be followed below.

The chains behind the UniProt entries cited, without tags or fusion partners. Residues count along the entry.
UniProt P04070, residues 43-461: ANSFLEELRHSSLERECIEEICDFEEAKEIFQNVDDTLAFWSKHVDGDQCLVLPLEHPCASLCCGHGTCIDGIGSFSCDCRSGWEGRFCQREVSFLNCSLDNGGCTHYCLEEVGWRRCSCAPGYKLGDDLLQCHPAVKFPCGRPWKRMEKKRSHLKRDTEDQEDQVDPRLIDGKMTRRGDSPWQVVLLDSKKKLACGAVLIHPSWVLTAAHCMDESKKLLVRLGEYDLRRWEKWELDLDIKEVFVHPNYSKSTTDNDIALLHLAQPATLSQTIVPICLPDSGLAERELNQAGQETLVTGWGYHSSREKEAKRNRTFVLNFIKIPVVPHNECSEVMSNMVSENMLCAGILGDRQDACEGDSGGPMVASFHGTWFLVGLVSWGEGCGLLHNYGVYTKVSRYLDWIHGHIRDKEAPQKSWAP

These are yes or no findings as the source states them, for the method shown. Some binding calls cover weakened binding; strength is not graded here.

Assay [1] has as its target protein C (PC) (UniProt P04070). Nature of the assay: affinity column with immobilized rhsEPCR; PC eluted with EDTA (data not shown).
Assay [2] has the same target. The experiment in a line: inhibition of PC activation on endothelial cells by soluble rhsEPCR.

B1: recombinant human soluble EPCR (rhsEPCR) (receptor)
chain: SISQDASDGLQRLHMLQISYFRDPYHVWYQGNASLGGHLTHVLEGPDTNTTIIQLQPLQEPESWARTQSGLQSYLLQFHGLVRLVHQERTLAFPLTIRCFLGCELPPEGSRAHVFFEVAVNGSSFVSFRPERALWQADTQVTSGVVTFTLQQLNAYNRTRYELREFLEDTCVQYVQKHISAENTKGSQTSRSYTSAAASFLEQKLISEEDLNSAVDHHHHHH
notes: also called recombinant sEPCR; human recombinant EPCR in soluble form
Turning to B1, the binding entry with protein C (PC) [1] and with protein C (PC) [2] was “binds” in each case.
